± gives the standard deviation of the averaged measurements. In all, about 3,800 compounds were measured (“cell shape (eccentricity) Z-score vs DMSO control”: median about 1.1, lowest 2% from about -4.7 on). The list shows a part of the results.
These molecules were tested on human monocyte-derived macrophages (M0) (assay: cell shape (eccentricity) Z-score vs DMSO control; higher = more elongated, M2-like morphology). Details: 20 µM; 24 h; macrophage state: M0 (M-CSF).

SMILES | cell shape (Z-score)
CN1[C@@H](CC(=O)c2ccccc2)CCC[C@H]1C[C@H](O)c1ccccc1 | -3.79
CN1C(CCl)Nc2cc(Cl)c(S(N)(=O)=O)cc2S1(=O)=O (stereo not given) | 0.386
Fc1ccc([C@@H]2CCNC[C@H]2COc2ccc3c(c2)OCO3)cc1 | 1.33
C/C(=C\CC[C@H](CO)[C@@H]1CC[C@]2(C)C3=C(CC[C@@]12C)[C@@]1(C)CCC(=O)C(C)(C)C1CC3)C(=O)O (stereo not given in full) | 0.863 ± 2.3
CC1(C)CC(c2nc(-c3ccc4ccc(-c5ccccc5)nc4c3)c3c(N)nccn23)C1 | 6.24
CS(=O)(=O)Nc1ccc([N+](=O)[O-])cc1Oc1ccccc1 | 3.89
O=C(O)CCC=CCC1COC(c2ccccc2Cl)OC1c1ccccc1O (stereo not given) | 2.22
CCCCC/C=C/C=C/C(O)CCCCCCCC(=O)O (stereo not given) | 0.726
COc1cc(C2CC(=O)c3c(O)cc(O)cc3O2)ccc1O (stereo not given) | 2.17 ± 1.8
CC1OC(Oc2cc(O)c(C3OC(C)C(O)C(O)C3O)c3oc(-c4ccc(O)cc4)cc(=O)c23)C(O)C(O)C1O (stereo not given) | 1.37
CC(=O)NC(C(=O)O[C@H]1CCC(C)(C)[C@@H]2CC=C3C(=O)OCC3(O)[C@@]12C)C(C)C (stereo not given in full) | 0.522 ± 0.68
CC[C@H]1OC(=O)[C@H](C)[C@@H](O[C@H]2C[C@@](C)(OC)[C@@H](O)[C@H](C)O2)[C@H](C)[C@@H](O[C@@H]2O[C@H](C)C[C@H](N(C)C)[C@H]2O)[C@](C)(O)C[C@@H](C)CN(C)[C@H](C)[C@@H](O)[C@]1(C)O | -0.526
c1ccc(C2CN3CCSC3=N2)cc1 (stereo not given) | 0.216
c1ccc2oc(C3=NCCN3)cc2c1 | 3.36
COc1cc2c(c(OC)c1OC)C[C@H]1COC(=O)[C@@H]1Cc1c-2cc(OC)c(OC)c1OC | -9.6
Oc1ccc2ccccc2c1 | 0.791
COc1c2occc2cc2ccc(=O)oc12 | 2.93
CC1CC(=O)c2c(ccc3c2C(=O)c2cccc(O)c2C3O)C1 (stereo not given) | 4.78
CCOc1ccc(Cc2cc([C@@H]3O[C@H](CO)[C@@H](O)[C@H](O)[C@H]3O)ccc2Cl)cc1 | -0.0179
Clc1ccc(CCC(Cn2ccnc2)Sc2c(Cl)cccc2Cl)cc1 (stereo not given) | 1.78

Copied from the entries so far (4 entries):
SMILES | cell shape (Z-score)
CC[C@H]1OC(=O)[C@H](C)[C@@H](O[C@H]2C[C@@](C)(OC)[C@@H](O)[C@H](C)O2)[C@H](C)[C@@H](O[C@@H]2O[C@H](C)C[C@H](N(C)C)[C@H]2O)[C@](C)(O)C[C@@H](C)CN(C)[C@H](C)[C@@H](O)[C@]1(C)O | -0.526
c1ccc(C2CN3CCSC3=N2)cc1 (stereo not given) | 0.216
c1ccc2oc(C3=NCCN3)cc2c1 | 3.36
COc1cc2c(c(OC)c1OC)C[C@H]1COC(=O)[C@@H]1Cc1c-2cc(OC)c(OC)c1OC | -9.6

Carrying on.

SMILES | cell shape (Z-score)
CC(=O)OC(c1nc2ccccc2c(=O)n1C1CC2(OC1=O)c1ccccc1N1C(=O)C(C)(C)N(O)C12)C(C)C (stereo not given) | -0.202
O=C1N(c2ccccc2)c2ccccc2C1(Cc1ccncc1)Cc1ccncc1 | 2.55
COc1ccc(C(O)CNC(=O)/C=C/c2ccccc2)cc1 (stereo not given) | -1.2 ± 1.9
Cc1cc(I)ccc1Nc1c(C(=O)NOCC2CC2)cc(F)c(F)c1F | -2.48
CNc1cc(OC)c(C(=O)NC2CCN(Cc3ccccc3)C2C)cc1Cl (stereo not given) | -1.61
O=C(OC1C=C(CO)C2C(OC3OC(CO)C(O)C(O)C3O)OC=CC12O)c1ccc(O)cc1 (stereo not given) | 4.76
C=C1CCC2(C(=O)OC3OC(CO)C(O)C(O)C3O)CCC3(C)C(=CCC4C5(C)CC(O)C(OC6OCC(O)C(O)C6OC6OC(CO)C(O)C(O)C6O)C(C)(CO)C5CCC43C)C2C1 (stereo not given) | 0.275
N#Cc1ccc(COC[C@H]2O[C@@H](n3c(NCc4ccc(Cl)c(Cl)c4)nc4c(N)ncnc43)[C@H](O)[C@@H]2O)cc1 | 9.18
Nc1ccc(S(=O)(=O)NC(=O)c2ccccc2)cc1 | 0.441
Cn1cnc2c1c(=O)[nH]c(=O)n2C | 2.56
CN1CCC(=C2c3ccccc3CC(=O)c3sccc32)CC1 | 4.57
C=CC1(C)C=C2CCC3C(C)(C)C(O[C@@H]4O[C@@H](CO)[C@H](O)[C@H]4O)CCC3(C)C2CC1O[C@@H]1O[C@H](C)[C@H](O)[C@H](O)[C@H]1O (stereo not given in full) | 1.11
Cc1cc(C(C)(C)C)c(O)c(C(C)(C)C)c1 | 2.71
COc1cc(O)c(C(=O)CCc2ccc(OC)c(OC)c2)c(OC)c1 | 4.56
C[C@H](NC(=O)/C(C#N)=C/c1ccc(O)c(O)c1)c1ccccc1 | -2.26
COc1cc2occc2c(O[C@@H]2O[C@H](CO)[C@@H](O)[C@H](O)[C@H]2O)c1CCC(=O)O | 1.86
CCCc1cc2c(N3CCN(C4=NCC(C)(C)S4)CC3)ncnc2s1 | 1.96
CC1(C)CC[C@]2(C(=O)O)CC[C@]3(C)C(=CCC4[C@@]5(C)CC[C@H](O)[C@@](C)(CO)C5CC[C@]43C)C2C1 (stereo not given in full) | 1.23
COc1cc(/C(C)=C/C(C)O)oc(=O)c1C (stereo not given) | 1.97 ± 0.036
O=c1c2cc(O)c(O)cc2oc2cc(O)c(C3O[C@H](CO)[C@H](O)[C@@H](O)[C@H]3O)c(O)c12 (stereo not given in full) | 1.95

SMILES | cell shape (Z-score)
CCCC[C@@H](CC)COC(=O)c1ccccc1O | 2.47
OCCNCCCOc1cccc(Cl)c1Cl | 4.64
O=C1c2cc(O)cc(O)c2C(=O)c2c1cc(O)c(C(CO)CCO)c2O (stereo not given) | -1.07
C=CC(C)(C)[C@@]12CC(=O)C(=O)N3/C(=C/c4cnc[nH]4)C(=O)N[C@]31N(OC)c1ccccc12 | -0.897
NC(=O)CCCCn1ccc(N=C(N)NCC(F)(F)F)n1 | 1.3
O=C1NC(Cc2c[nH]c3ccccc23)C(=O)N2CCCC12 (stereo not given) | -1.99
Oc1ccc(CCCCC(O)CCc2ccc(O)cc2)cc1 (stereo not given) | 0.0909
O=C1CSC(=O)N1 | -2.17
CS(=O)(=O)NC(=O)CCC/C=C\C[C@H]1C(=O)C[C@@H](O)[C@@H]1/C=C/[C@@H](O)COc1ccccc1 | -0.00725
COc1c(O[C@@H]2O[C@H](C(=O)O)[C@@H](O)[C@H](O)[C@H]2O)cc2oc(-c3ccccc3)cc(=O)c2c1O | 1.12
O=c1cc(-c2ccccc2)oc2ccccc12 | 7.09
CC1=CC(C/C(C)=C/COc2ccc3ccc(=O)oc3c2)OC1=O (stereo not given) | -0.801
Cc1ccc(NC(=O)c2cccc(N(C)C)c2)cc1NC(=O)c1ccc(O)cc1 | 2.27
COc1cc(C2OC(c3cc(OC)c(OC)c(OC)c3)C(C)C2C)cc(OC)c1OC (stereo not given) | 2.14 ± 4.2
CCCSc1ccc2[nH]c(NC(=O)OC)nc2c1 | -3.67
c1ccc(CN(CC2=NCCN2)c2ccccc2)cc1 | 1.59
CCc1ccc(CCOc2ccc(CC3SC(=O)NC3=O)cc2)nc1 (stereo not given) | -0.791
O=C(O)c1cc(Oc2ccc([N+](=O)[O-])cc2)cc(Oc2ccc([N+](=O)[O-])cc2)c1 | 1.81
O=[N+]([O-])c1cc2nc(O)c(O)nc2cc1[N+](=O)[O-] | -1.93
COc1ccc2c(c1)c1c3n2CCN(C)C3=NCC1 | -1.74
